According to PubChem BioAssay AID1347423 (Functional Genomics Laboratory (NCATS/FGL), 2020):
“And” between values parts separate entries of the source, which are not always exact repeats. Identical values can stand only once. In all, about 52,000 sequences went through this assay and about 210 (0.4%) were called active.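 Rule for the calls: active = gene whose silencing raises cell survival under the drug, median off-target-corrected z-score across its silencing RNAs 2 or more; inactive = the rest.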 Some of the results follow.

assay: Resistance to Poly (ADP-Ribose) Polymerase inhibitor: Gene Identification via Genome-wide siRNA Screen; settings: mouse BRCA2 R2336H ES cells, olaparib, CellTiter-Glo viability; hits give high values
Procedure, shortened: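 Genome-wide siRNA screen (3 siRNAs/gene, 20 nM) in mouse ES cells carrying hypomorphic BRCA2 R2336H; olaparib 500 nM added 48 h post-transfection, CellTiter-Glo viability 72 h later. Normalized to plate-median negative control; MAD z-scores, gene median, seed-adjusted.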

| Sequence | z-score |
| --- | --- |
| GGUAAAUGAUCUGAAAAUGTT against Rps6ka6 | inactive: 0.591 |
| GCCGGAAGGCCAUUUAUAATT against Acadsb | inactive: 0.00112 |
| GGCGGUAUUUUGCUGAUUUTT against Ccnj | inactive: -0.651 |
| GGCCAGAUAUUAUAAGAAATT against E330008O22Rik | inactive: 0.0447 |
| GCUAGGAAUGAUGUGAGGCTT against Ppp5c | inactive: 1.82 |
| GGUGCCAGAUGUCAAGAAATT against Rpn2 | inactive: 1.07 |
| CCAGAUGAACGGGACAAACTT against Cited2 | inactive: -0.473 |
| GGGCAAAAUGUGGAGAUGUTT against BC027127 | inactive: -0.455 |
| GGCAUUUCAGGUUCAUGGATT against Zfp101 | inactive: -0.36 |
| CCCUGACACUAAUUUUCCUTT against Nagpa | inactive: -0.0793 |
| GCCGACAGAUCGUCUUGAUTT against Tmc4 | inactive: -2.07 |
| CGUUUAUGAAGUGAAAGAUTT against Mrpl37 | inactive: -0.438 |
| GGAGCUGAAUGUCUGUAGCTT against 2410018G20Rik | inactive: 1.04 |
| GGUUUGAAUGUCACCGGCATT against 0610030I09Rik | inactive: -0.136 |
| GGAAGAAGAAGACCAGGGATT against Parvb | inactive: -2.74 |
| GCAGUAGCUGAAUUUUUUATT against Cnot10 | inactive: -0.394 |
| GGUUCCAGCUAAUAGCCUGTT against Plekhj1 | inactive: -0.146 |
| GGGUUUGAGGACUUGAUGATT against 2610019A05Rik | inactive: 1.5 |
| GGCUCAGCUAAGAAAUACGTT against 1500001L15Rik | inactive: -0.739 |
| GCGAAUUCAUGUUUGAGGATT against Foxf2 | inactive: -1.13 |
| CGGAUAUGAAUUUUUUGCUTT against Ppp1cb | inactive: 0.228 |
| CCUGAUCGUCAUCUAUACCTT against Irs3 | inactive: 1.05 |
| GAUUGUGCCUUAUCUCUAATT against V1rh11 | inactive: -1.16 |
| CCAAGCUAGUCCUCAAGCUTT against Snapc2 | inactive: 0.955 |
| CUCUGAACGACCUAUACCUTT against Cebpd | inactive: -1.79 |
| CCACUUUUUGGAUAAUCUGTT against BC046331 | inactive: 1.23 |

| Sequence | z-score |
| --- | --- |
| GGAGCCUGUCUUUUAUUGATT against Olfr938 | inactive: 0.534 |
| GGAUCCUUGUACAGAAAUGTT against Snx26 | inactive: 0.135 |
| GGGAUGCACUGAGUGAAGATT against Scg2 | inactive: -0.207 |
| GGUCUAUGUGUGGAUGGAATT against Crb1 | inactive: -0.655 |
| GGACACAAAUUUCGUGAUGTT against 4922502D21Rik | inactive: 1.2 |
| GGUCUUUGUGUCCACCUACTT against Grca | inactive: -0.161 |
| GCUUCACAGAAGCUUUGUGTT against Ccl4 | inactive: -0.331 |
| GGCUUUGAGCCCGAAAAUCTT against Zfpm2 | inactive: -0.193 |
| GGGAAGGAUAUCAUUGUGCTT against Olfr920 | inactive: 0.061 |
| GCCUUUCUACAGGUCUCUCTT against Asb18 | inactive: 0.335 |
| GGGUUGAUAGCAGAUAUCCTT against Cd52 | inactive: 0.174 |
| GCUAUAAAAUCUGCACAAGTT against Amy2 | inactive: -0.799 |
| GGCUCUUCUUAUGCACCCUTT against Pdyn | inactive: 0.386 |
| GGAAAGAGCCAUCCUUUGATT against Gnmt | inactive: -0.468 |
| CCACCAAUCCCAUCCAAAUTT against Sox2 | inactive: -0.113 |
| GGGUGAGAUAGGAAAGUGGTT against 1810048P08Rik | inactive: -0.244 |
| GGGUUCAACACAUUCUCUGTT against V1re4 | inactive: 0.714 |
| UUGGUUCAACUGCAUCGAATT against Olfr872 | inactive: 0.373 |
| GCCGGAAACUCAAGAUAGCTT against F830208F22Rik | inactive: 1.32 |
| GCCAUCGCCAGGGAACAAATT against 9230105E10Rik | inactive: -0.808 |
| GCAUCCUGUGAGGUCUAUCTT against Zfp316 | inactive: 0.278 |
| CCGGAACUAUCAAUAAAUGTT against Gbl | inactive: -1.06 |
| CCAGUUGAGUCACUUACUGTT against 2010012O05Rik | inactive: -0.382 |
| CCUGAUUGUCUUCAAUGGGTT against Cant1 | inactive: 1.63 |
| GGAGCAAGGCUACAUUUUUTT against Itih3 | inactive: -0.555 |
| CCCAAAAAGUUCAAACAAGTT against 1810015C04Rik | inactive: 2.24 |

| Sequence | z-score |
| --- | --- |
| CCAUAUUUAAGUCCCUGUCTT against Pim1 | inactive: -0.129 |
| AACUCCCUCCCUGUUGUAGTT against A4galt | inactive: -0.425 |
| GGAAAAUUGGGAAAAUGUGTT against Sell | inactive: -1.6 |
| GGAUUCGUAGUGGCUUCAGTT against Prss25 | inactive: -1.48 |
| GGCUUGGUAUGAUGCGCACTT against Rbm12 | inactive: 0.366 |
| GCACCAAGUAUAGGAUUAATT against Grit | inactive: 0.792 |
| GGUGCUAAAUUAUCCCUAUTT against C330046G03Rik | inactive: -0.271 |
| GCUGGUGCUCUUCACCAUATT against 1110064L07Rik | inactive: 0.444 |
| GGAAGAUACUAAUAGAGUATT against Enpep | inactive: 0.831 |
| CCUUGUACCCAGUAAAGUCTT against 2310007B03Rik | inactive: -2.34 |
| CUCCCUGGCAUUAAUCCGUTT against 1700055M20Rik | inactive: -0.728 |
| GGAACAAAAAGAAAAGGACTT against 4933424A10Rik | inactive: 1.3 |
| GGAGAAAGCCUUCCUUAGUTT against Trpc5 | inactive: -0.503 |
| GCAACUCUUGGUUUCCUGUTT against BC017647 | inactive: 0.57 |
| GCUAGAUGCUACGAGAUUGTT against Tipin | inactive: 0.231 |
| GGCUUCCUAUCUGAUUACUTT against Acsl4 | inactive: -0.0779 |
| GGUGGACAUGCUGAAGUUGTT against Naga | inactive: -0.456 |
| GGAUGUGAAUGAGUGUGAGTT against 1600015H20Rik | inactive: -1.07 |
| GGCAAAAUAGAGAAAUACATT against D15Ertd366e | inactive: -0.997 |
| CGUGAGGUUUGGAGGGUCATT against 3010033P07Rik | inactive: -3.06 |
| CCGGUAUUACAACAAGUACTT against Atp5j2 | inactive: -1.25 |
| GCUAUACGUACAAUGGCAATT against Prrg2 | inactive: 1.43 |
| CGGAAUGUAGGACACGAAUTT against Ltb | inactive: 0.436 |
| GGAACAUCACAGAAGCUACTT against Olfr141 | inactive: -1 |
| GCAUACCUAGACUGAAAACTT against BC003324 | inactive: 0.503 |
| GCCAGUGUUCGUGCCUGAUTT against C85492 | inactive: -2.67 |

| Sequence | z-score |
| --- | --- |
| CCAAAUCUCUCAAUUUAGGTT against BC066223 | inactive: -0.235 and inactive: 0.517 |
| CCACUACUUUCCUACAAAUTT against Stard8 | inactive: 0.45 |
| GGCUCAGUGAGUUUCAGAATT against Snx25 | inactive: 0.423 |
| GAUCUCAAACAUUCUAUGCTT against 1110014K05Rik | inactive: 0.747 |
| GGAAAUGCUCCUCUAGGAUTT against 6330579B17Rik | inactive: 0.927 |
| UAUCGUCCACAACUACUCATT against Epn1 | inactive: 0.642 |
| GCUCAUUGGAUGUUGCUGATT against Elf1 | inactive: 0.564 |
| GCAUGUGAUGCUACGUAUATT against Fmr1 | inactive: 0.242 |
| GGAUCUUCGUGUCCAUUUATT against E130120L08Rik | inactive: 0.321 |
| GGUGGACACAUAUAGUCCCTT against Col27a1 | inactive: 0.988 |
| GCCAUUCUAGGAACUCUGATT against Thrap3 | inactive: -0.935 |
| GCGGUCAUGACAAGUCACUTT against A530087D17Rik | inactive: 0.223 |
| CCAGUGAUUAAUGUGACCUTT against LOC210321 | inactive: 0.847 |
| GGAUUUUGUUGACAAUGAUTT against Brrn1 | inactive: -1.34 |
| GGACUGUGACAAAGCCUAUTT against Klk1 | inactive: 0.534 |
| UCAGGUCGCUGCUAAACUCTT against 4933434G05Rik | inactive: -0.284 |
| GGGAAUAUCACAGGUGCCATT against Axl | inactive: -0.069 |
| GCCCGGAGAACAUGAUUAUTT against Tead4 | inactive: 0.904 |
| GGAACCUCACAUCCAGUGATT against 9130218O11Rik | inactive: 1.02 |
| GGGAUACUCCAAGUUCCAUTT against Muc4 | inactive: 1.51 |
| GGAAAUCUUUAUACAAGGATT against 4930467B06Rik | inactive: 1.49 |
| GCCACUACUACAUCAAUGUTT against BC012256 | inactive: 0.495 |
| GGAAGUCCAGGGAUACAUGTT against Erbb2 | inactive: -0.898 |
| GGACAAUCAGGAAUCAUAUTT against Recql | inactive: -0.882 |
| GGAGAAGUAUGGAGAGAUUTT against U2af1l4 | inactive: -0.604 |
